Measurements published in patent publication US6627218B2, “Cationic amphiphiles of cholesterol” (The University of Tennessee Research Foundation, priority 1991, dated 2003).
Counter-ions that a name gives are not always drawn. Some entries share one result that the patent states for a list of compounds.

Biological target: protein kinase C (PKC)
Experiment: Mixed micelle assay of protein kinase C
Type: biochemical, rat
Details: pure cationic cholesterol derivative; diolefin, phosphatidyl serine and Ca2+ stimulated PKC; read-out: PKC Inhibition IC50
Protocol: As rapidly as possible, brains for 25 Sprague-Dawley rats (150-200 g) were removed, washed with 100 ml of 20 mM TRIS, 1 mM EDTA, 1 mM EGTA, pH 7.5, and homogenized in 150 ml of ice cold 20 mM TRIS, 10 mM EGTA, 2 mM EDTA, 10 mM DTT, 0.25 M sucrose, 2 mM PMSF and 100 μg/ml leupeptin, pH 7.5. The homogenate was immediately centrifuged at 100,000 g for 40 minutes at 4° C. in a Beckman Ti 50.2 rotor. The supernatant was applied to a 2.5×20 cm column of DEAE Sepharose (fast flow) containing 60 of resin equilibrated with 20 mM TRIS, 1 mM EDTA, 1 mM DTT, pH 7.5 (buffer A). The column was washed with 300 ml of buffer A and an additional 200 ml of buffer A containing 0.03 M KCl. Protein kinase C was eluted with a 500 ml continuous KCl gradient (0.03-0.3 M KCl). Fractions of 5 ml volumes were collected. Fractions showing calcium and phospholipid dependence were pooled; the salt concentration was adjusted to 1.5 KCl with the appropriate quantity of solid KCl. The crude sample containing 1.5 M KCl was stirred for 15 minutes and subsequently loaded onto a 1×10 cm column containing 9 ml Phenyl sepharose equilibrated with 1.5 M KCl in 20 mM TRIS, 0.5 mM EGTA, 1 mM DTT, pH 7.5 (buffer B). The column was washed with 90 ml of buffer B containing 1.5 M KCl. […] Trace impurities (116 k, 66 k, and 50 k Mr) could still be detected when the gel was silver stained heavily. […]

| SMILES | IC50 [µM] |
| --- | --- |
| CC(C)CCCC(C)C1CCC2C3CC=C4CC(C(=O)NCC[N+](C)(C)C)CCC4(C)C3CCC12C (stereo not drawn) [IV, Cholesteryl-3β-Carboxyamidoethylenetrimethylammonium Iodide] | < 20 |
| CC(C)CCCC(C)C1CCC2C3CC=C4CC(C(=O)OC(CN(C)C)C[N+](C)(C)C)CCC4(C)C3CCC12C (racemic) [Compound VI, 1-Dimethylamino-3-Trimethylammonio-DL-2-Propyl Cholesteryl Carboxylate Iodide Salt] | < 20 |
